{"sequences": {"note": "Chains of the proteins cited; added tags and fusions are not shown. Residues count along the entry.", "UniProt Q04721, 26-1677": "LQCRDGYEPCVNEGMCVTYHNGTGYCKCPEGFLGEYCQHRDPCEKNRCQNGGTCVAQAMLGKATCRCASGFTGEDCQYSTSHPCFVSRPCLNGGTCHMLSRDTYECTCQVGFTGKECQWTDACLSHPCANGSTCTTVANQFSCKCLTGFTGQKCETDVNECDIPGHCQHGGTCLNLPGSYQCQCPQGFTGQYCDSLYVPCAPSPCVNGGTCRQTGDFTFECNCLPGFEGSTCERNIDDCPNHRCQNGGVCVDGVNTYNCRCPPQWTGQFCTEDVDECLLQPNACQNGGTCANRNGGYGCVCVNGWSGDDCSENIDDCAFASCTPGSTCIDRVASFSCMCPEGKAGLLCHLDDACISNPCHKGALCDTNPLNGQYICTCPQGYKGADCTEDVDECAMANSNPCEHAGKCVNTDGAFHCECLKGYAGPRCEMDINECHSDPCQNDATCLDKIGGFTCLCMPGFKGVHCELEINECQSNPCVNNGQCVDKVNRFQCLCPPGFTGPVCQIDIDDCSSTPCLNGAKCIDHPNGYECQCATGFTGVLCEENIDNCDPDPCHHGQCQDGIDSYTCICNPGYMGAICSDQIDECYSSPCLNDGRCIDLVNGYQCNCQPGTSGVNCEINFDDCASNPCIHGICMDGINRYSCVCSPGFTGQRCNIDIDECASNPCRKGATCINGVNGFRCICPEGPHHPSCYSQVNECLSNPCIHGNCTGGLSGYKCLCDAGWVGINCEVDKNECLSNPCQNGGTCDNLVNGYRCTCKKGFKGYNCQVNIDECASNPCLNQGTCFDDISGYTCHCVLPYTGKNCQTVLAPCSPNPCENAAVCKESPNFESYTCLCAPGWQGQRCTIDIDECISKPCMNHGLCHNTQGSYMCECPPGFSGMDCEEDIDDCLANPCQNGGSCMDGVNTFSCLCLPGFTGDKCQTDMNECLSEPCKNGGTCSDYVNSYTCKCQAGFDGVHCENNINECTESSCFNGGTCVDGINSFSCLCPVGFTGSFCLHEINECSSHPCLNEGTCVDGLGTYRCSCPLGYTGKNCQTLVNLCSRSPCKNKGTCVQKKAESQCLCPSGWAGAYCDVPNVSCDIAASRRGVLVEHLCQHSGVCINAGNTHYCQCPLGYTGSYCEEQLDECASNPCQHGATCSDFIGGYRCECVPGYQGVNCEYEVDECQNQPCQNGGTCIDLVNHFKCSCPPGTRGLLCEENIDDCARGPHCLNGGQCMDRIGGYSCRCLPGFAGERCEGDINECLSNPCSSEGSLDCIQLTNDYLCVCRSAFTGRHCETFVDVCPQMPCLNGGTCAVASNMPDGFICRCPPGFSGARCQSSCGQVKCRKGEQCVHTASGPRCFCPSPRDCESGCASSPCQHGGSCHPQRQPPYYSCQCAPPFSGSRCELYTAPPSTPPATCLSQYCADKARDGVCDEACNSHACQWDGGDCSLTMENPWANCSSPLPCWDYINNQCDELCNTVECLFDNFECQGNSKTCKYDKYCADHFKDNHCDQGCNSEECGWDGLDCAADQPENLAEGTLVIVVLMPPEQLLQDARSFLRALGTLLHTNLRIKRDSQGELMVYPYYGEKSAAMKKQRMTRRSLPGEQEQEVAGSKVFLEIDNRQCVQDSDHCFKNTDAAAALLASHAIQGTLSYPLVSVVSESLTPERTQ"}, "source": "patent US20230193285", "about": "“BISPECIFIC PERSONALIZED APTAMERS” (Aummune Ltd., published 2023)", "key": {"[1]": {"system": "IgG1 isotype control (Homo sapiens)", "assay": "SPR", "settings": "non-specific IgG control protein; purified recombinant protein; protein details: InVivoMAb BE0297; single-stranded DNA"}, "Notch2 (Homo sapiens)": {"target": "Notch2 (Homo sapiens) (UniProt Q04721)", "assay": "flow cytometry", "settings": "concentration-dependent binding well above vector control; protein on the cell surface; single-stranded DNA"}, "KCNK17 (Homo sapiens)": {"target": "T1, KCNK17 (Homo sapiens) (UniProt Q96T54)", "T1 sequence (looked up, limits assumed)": "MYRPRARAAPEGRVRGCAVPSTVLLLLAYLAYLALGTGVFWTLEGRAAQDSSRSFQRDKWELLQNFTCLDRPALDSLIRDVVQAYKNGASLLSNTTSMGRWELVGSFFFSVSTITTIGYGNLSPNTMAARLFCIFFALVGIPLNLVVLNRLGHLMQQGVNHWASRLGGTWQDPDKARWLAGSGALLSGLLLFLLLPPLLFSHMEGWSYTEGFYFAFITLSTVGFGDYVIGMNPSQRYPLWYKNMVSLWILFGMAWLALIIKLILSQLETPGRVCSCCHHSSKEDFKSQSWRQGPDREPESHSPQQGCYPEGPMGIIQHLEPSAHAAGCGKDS", "assay": "flow cytometry", "settings": "concentration-dependent binding well above vector control; protein on the cell surface; single-stranded DNA"}, "[2]": {"system": "IgG1 isotype control (Homo sapiens)", "assay": "binding assay", "settings": "PS on first five 5' nucleotides of CpG motif, HPLC size exclusion, negative control protein, purified recombinant protein, protein details: InVivoMAb BE0297, label: Cy5-CpG' complementary strand, single-stranded DNA"}}, "note": "For at least one entry, the source does not settle the construct or the ends of the probe. For part of these data: A negative result means that nothing was seen under these conditions. For part of these data: Results from cells or extracts need not show a direct contact. For part of these data: Protein sequences can lack the tags named with them.", "data": [{"sequence": "ATCGTATAAGGGCTGCTTAGGATTGCGATAATACGGTCAA [CS6]", "values": [{"measurement": "binding result", "setting": "[1]", "value": "no binding"}]}, {"sequence": "GCATACCTTTCGTATGCCTTTTTGACCCGTATTTTTGCCCTACCCTTCGG [CTL3]", "values": [{"measurement": "binding result", "setting": "Notch2 (Homo sapiens)", "value": "binds"}, {"measurement": "binding result", "setting": "KCNK17 (Homo sapiens)", "value": "binds"}]}, {"sequence": "TCGTCGTCGCGGTTCGCGTCCGCATTTCATAGGGCTGCTTAGGATTGCGAAGGTAATGCCAG [CpG1-CS7]", "values": [{"measurement": "binding result", "setting": "[2]", "value": "no binding"}]}, {"sequence": "TCGTCGTCGCGGTTCGCGTCCGCTTTTAGGTCTGCTTAGGATTGCGAAAAAAG [CpG1-CS8c]", "values": [{"measurement": "binding result", "setting": "[2]; variant of CpG1-CS8", "value": "no binding"}]}, {"sequence": "TCGTCGTCGCGGTTCGCGTCCGTATCGTATAAGGGCTGCTTAGGATTGCGATAATACGGTCAA [CpG1-CS6]", "values": [{"measurement": "binding result", "setting": "[2]; variant of CS6", "value": "no binding"}]}]}
